Measurements published in publication PMC6056535.
Results are given in words; binding and its absence hold for the method and conditions named. Binding seen in cells or lysates may run through a third protein. These calls come from enrichment with a bait or labelling near it, and not all partners need be listed.

Target: Flag-abLIM1 (full-length human abLIM1, 743 amino acids) (human)
Experiment: affinity purification with mass spectrometry; lysates of HEK293T cells expressing Flag-abLIM1 or Flag-luciferase mixed with P0 mouse brain lysates, co-IP, shotgun mass spectrometry

binding: binds
B1: α adducin (mouse brain lysate) (protein, UniProt Q9QYC0 1-735)
chain: MNGDTRAAVVTSPPPTTAPHKERYFDRVDENNPEYLRERNMAPDLRQDFNMMEQKKRVSMILQSPAFCEELESMIQEQFKKGKNPTGLLALQQIADFMTASVPNVYPAAPQGGMAALNMSLGMVTPVNDLRGSDSIAYDKGEKLLRCKLAAFYRLADLFGWSQLIYNHITTRVNSEQEHFLIVPFGLLYSEVTASSLVKVNLQGDIVDRGSTNLGVNQAGFTLHSAVYAARPDAKCIVHIHTPAGAAVSAMKCGLLPISPEALSLGDVAYHDYHGILVDEEEKILIQKNLGPKSKVLILRNHGLVSVGESVEEAFYYIHNLVVACEIQVRTLASAGGPDNLVLLDPGKYKAKSRSPGTPAGEGSGSPPKWQIGEQEFEALMRMLDNLGYRTGYPYRYPALRERSKKYSDVEVPASVTGHSFASDGDSGTCSPLRHSFQKQQREKTRWLHSGRGDDASEEGQNGSSPKSKTKWTKEDGHRTSTSAVPNLFVPLNTNPKEVQEMRNKIREQNLQDIKTAGPQSQVLCGVMMDRSLVQGELVTASKAIIEKEYQPHVIVSTTGPNPFNTLTDRELEEYRREVERKQKGSEENLDETREQKEKSPPDQSAVPNTPPSTPVKLEEDLPQEPTSRDDSDATTFKPTPPDLSPDEPSEALAFPAVEEEAHASPDPTQPPAEADPEPASAPTPGAEEVASPATEEGSPMDPGSDGSPGKSPSKKKKKFRTPSFLKKSKKKSDS
